Results reported in article PMC8400980.
Results are given in words; binding and its absence hold for the method and conditions named. Binding seen in cells or lysates may run through a third protein. Some results given as binding are weak or reduced against the parent protein; the word gives no strength.

Sequences of proteins named here, by UniProt entry; tags and fusion partners are left off.
UniProt Q2GI62: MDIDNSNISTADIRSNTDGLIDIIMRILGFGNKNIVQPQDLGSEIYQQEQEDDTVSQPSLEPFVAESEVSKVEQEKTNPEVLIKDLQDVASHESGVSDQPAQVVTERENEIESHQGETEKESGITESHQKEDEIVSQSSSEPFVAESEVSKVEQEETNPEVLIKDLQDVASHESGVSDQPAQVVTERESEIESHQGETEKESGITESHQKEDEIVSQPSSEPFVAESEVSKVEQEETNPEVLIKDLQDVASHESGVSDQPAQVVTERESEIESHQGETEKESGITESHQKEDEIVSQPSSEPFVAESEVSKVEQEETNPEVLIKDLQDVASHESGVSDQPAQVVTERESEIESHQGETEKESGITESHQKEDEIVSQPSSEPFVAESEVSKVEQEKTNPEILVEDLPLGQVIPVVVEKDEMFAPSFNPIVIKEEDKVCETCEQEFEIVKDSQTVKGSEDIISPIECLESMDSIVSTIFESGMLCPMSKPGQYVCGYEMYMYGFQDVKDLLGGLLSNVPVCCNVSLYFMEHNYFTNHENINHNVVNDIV
UniProt P06733: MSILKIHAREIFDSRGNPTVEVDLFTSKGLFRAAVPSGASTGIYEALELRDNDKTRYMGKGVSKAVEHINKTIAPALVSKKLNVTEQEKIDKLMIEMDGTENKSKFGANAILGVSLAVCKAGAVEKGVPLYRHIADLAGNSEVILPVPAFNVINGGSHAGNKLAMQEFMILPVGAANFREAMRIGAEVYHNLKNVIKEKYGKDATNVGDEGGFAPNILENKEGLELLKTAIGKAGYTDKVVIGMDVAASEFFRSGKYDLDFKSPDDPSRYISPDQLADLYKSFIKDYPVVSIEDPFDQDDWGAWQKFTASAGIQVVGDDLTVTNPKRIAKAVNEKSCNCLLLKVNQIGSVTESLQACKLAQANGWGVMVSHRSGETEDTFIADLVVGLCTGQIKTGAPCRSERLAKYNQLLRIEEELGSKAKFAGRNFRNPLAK

Molecular target: Ehrlichia chaffeensis TRP120 (native, in infected THP-1 cells) (Ehrlichia chaffeensis (Arkansas strain)) (UniProt Q2GI62)
Assay: co-IP

## Alpha-enolase (ENO-1), endogenous in THP-1 cells (from UniProt P06733 1-434)
  binding: binds
